Measured values from the supplement of paper PMC10849652.
Some of the results follow.

Amino acid sequences for entries named in this document (tags omitted). A change or cut given only in a name is not applied to a line headed by its entry.
UniProt Q6IA86: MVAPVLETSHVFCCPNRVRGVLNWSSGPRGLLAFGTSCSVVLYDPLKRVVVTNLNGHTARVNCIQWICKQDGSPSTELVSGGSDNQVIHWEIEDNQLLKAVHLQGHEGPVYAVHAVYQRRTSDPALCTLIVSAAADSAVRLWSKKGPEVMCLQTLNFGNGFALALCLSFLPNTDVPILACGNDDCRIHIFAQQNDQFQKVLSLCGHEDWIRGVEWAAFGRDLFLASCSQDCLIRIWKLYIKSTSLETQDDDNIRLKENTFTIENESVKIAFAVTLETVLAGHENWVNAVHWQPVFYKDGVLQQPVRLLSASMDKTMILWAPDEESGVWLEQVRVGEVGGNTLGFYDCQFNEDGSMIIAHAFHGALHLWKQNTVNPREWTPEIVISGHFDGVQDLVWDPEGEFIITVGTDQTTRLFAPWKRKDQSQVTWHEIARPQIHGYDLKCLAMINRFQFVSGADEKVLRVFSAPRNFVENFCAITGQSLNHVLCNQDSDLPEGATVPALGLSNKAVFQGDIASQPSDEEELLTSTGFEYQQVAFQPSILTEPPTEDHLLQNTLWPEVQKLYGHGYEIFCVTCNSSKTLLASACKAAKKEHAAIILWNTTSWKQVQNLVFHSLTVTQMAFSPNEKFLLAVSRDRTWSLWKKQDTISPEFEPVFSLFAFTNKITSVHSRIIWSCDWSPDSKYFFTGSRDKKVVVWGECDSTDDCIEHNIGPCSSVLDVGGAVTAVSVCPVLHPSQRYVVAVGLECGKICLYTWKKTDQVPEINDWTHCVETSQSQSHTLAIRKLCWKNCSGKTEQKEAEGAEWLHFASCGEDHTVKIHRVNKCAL
UniProt O75822, whole entry, looked up: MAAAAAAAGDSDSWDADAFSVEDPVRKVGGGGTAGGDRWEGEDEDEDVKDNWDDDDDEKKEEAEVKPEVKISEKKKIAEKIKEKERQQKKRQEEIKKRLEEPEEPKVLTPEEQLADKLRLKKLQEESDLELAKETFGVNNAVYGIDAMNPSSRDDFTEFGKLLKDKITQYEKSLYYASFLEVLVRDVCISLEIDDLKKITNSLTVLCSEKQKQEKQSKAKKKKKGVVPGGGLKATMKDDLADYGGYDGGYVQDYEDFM
UniProt Q96C92: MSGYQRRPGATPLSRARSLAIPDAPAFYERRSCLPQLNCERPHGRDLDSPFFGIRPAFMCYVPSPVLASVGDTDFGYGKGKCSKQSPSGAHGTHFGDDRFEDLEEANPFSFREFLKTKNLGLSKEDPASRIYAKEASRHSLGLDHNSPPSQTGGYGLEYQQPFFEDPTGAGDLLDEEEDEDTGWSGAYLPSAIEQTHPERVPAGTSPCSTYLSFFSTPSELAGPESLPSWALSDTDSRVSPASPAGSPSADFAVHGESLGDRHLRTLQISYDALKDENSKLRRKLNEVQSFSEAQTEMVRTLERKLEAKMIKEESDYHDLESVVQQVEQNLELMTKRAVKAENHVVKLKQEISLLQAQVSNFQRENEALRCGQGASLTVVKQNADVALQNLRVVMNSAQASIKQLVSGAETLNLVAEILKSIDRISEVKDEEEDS
UniProt Q96JJ3: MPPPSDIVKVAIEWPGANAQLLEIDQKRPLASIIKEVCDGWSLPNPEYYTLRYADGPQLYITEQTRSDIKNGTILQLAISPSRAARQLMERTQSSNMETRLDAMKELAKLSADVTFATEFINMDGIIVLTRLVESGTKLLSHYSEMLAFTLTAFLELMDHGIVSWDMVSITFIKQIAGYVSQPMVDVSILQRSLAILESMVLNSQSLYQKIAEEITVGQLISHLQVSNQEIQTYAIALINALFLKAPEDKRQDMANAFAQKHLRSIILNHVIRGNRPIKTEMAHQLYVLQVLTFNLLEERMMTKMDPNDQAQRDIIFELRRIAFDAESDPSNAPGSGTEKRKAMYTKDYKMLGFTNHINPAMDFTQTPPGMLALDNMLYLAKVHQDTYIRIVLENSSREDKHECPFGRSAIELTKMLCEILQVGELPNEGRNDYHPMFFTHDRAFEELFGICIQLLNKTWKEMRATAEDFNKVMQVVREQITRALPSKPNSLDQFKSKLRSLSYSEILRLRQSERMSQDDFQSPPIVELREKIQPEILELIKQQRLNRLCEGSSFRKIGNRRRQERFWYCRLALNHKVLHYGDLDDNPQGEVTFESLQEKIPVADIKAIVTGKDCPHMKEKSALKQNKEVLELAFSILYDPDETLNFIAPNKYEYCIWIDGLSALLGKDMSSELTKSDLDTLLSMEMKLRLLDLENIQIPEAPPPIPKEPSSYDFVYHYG
UniProt Q5JPI9: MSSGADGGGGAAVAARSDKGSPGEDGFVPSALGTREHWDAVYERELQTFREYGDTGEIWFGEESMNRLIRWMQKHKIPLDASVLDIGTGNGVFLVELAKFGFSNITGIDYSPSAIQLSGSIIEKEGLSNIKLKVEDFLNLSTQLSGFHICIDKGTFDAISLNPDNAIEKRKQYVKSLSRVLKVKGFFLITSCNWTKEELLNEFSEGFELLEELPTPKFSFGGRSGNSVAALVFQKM
UniProt Q6ZTU2, whole entry, looked up: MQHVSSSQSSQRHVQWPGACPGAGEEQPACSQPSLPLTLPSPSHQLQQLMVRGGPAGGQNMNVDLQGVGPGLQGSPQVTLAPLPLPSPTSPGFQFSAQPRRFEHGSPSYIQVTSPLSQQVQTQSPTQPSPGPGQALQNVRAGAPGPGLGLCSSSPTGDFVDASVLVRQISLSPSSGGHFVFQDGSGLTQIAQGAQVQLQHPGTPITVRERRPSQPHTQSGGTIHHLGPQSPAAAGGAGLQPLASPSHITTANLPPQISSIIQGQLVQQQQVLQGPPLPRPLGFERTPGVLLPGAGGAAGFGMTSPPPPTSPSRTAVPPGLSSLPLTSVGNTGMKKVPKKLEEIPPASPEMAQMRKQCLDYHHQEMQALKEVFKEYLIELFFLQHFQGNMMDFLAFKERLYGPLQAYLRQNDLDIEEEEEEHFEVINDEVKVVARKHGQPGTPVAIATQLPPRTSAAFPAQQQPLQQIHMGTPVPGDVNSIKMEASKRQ
UniProt Q8NDI1: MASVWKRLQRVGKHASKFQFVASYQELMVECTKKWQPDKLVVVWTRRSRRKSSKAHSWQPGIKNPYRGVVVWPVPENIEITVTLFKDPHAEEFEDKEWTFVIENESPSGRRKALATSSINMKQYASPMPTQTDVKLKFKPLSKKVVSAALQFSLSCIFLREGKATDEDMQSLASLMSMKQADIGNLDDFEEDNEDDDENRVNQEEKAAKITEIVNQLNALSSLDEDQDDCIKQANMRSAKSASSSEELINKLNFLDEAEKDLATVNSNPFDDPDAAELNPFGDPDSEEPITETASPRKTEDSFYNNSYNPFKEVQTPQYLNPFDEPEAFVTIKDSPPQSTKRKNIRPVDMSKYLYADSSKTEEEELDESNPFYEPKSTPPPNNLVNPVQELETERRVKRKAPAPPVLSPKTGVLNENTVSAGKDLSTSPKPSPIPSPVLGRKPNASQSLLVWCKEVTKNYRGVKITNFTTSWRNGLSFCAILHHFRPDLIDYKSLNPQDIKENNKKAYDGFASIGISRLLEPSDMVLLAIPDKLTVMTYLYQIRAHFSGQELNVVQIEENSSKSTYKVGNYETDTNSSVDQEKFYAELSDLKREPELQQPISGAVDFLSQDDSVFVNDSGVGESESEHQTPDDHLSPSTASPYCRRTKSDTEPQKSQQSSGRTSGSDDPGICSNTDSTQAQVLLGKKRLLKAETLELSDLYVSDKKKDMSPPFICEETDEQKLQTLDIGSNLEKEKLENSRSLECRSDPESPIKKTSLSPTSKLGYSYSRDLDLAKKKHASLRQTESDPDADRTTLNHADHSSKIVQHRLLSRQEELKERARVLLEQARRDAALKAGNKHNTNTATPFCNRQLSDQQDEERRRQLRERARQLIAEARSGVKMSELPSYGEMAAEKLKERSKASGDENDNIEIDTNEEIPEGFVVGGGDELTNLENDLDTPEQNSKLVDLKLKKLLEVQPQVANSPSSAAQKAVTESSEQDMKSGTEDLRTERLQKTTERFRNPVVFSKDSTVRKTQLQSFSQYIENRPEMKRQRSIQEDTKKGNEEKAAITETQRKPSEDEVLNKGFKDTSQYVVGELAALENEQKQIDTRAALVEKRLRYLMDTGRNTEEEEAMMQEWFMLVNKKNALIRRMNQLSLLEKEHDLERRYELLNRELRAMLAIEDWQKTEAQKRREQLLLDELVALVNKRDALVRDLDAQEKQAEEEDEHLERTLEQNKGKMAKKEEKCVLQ
UniProt Q05BV3: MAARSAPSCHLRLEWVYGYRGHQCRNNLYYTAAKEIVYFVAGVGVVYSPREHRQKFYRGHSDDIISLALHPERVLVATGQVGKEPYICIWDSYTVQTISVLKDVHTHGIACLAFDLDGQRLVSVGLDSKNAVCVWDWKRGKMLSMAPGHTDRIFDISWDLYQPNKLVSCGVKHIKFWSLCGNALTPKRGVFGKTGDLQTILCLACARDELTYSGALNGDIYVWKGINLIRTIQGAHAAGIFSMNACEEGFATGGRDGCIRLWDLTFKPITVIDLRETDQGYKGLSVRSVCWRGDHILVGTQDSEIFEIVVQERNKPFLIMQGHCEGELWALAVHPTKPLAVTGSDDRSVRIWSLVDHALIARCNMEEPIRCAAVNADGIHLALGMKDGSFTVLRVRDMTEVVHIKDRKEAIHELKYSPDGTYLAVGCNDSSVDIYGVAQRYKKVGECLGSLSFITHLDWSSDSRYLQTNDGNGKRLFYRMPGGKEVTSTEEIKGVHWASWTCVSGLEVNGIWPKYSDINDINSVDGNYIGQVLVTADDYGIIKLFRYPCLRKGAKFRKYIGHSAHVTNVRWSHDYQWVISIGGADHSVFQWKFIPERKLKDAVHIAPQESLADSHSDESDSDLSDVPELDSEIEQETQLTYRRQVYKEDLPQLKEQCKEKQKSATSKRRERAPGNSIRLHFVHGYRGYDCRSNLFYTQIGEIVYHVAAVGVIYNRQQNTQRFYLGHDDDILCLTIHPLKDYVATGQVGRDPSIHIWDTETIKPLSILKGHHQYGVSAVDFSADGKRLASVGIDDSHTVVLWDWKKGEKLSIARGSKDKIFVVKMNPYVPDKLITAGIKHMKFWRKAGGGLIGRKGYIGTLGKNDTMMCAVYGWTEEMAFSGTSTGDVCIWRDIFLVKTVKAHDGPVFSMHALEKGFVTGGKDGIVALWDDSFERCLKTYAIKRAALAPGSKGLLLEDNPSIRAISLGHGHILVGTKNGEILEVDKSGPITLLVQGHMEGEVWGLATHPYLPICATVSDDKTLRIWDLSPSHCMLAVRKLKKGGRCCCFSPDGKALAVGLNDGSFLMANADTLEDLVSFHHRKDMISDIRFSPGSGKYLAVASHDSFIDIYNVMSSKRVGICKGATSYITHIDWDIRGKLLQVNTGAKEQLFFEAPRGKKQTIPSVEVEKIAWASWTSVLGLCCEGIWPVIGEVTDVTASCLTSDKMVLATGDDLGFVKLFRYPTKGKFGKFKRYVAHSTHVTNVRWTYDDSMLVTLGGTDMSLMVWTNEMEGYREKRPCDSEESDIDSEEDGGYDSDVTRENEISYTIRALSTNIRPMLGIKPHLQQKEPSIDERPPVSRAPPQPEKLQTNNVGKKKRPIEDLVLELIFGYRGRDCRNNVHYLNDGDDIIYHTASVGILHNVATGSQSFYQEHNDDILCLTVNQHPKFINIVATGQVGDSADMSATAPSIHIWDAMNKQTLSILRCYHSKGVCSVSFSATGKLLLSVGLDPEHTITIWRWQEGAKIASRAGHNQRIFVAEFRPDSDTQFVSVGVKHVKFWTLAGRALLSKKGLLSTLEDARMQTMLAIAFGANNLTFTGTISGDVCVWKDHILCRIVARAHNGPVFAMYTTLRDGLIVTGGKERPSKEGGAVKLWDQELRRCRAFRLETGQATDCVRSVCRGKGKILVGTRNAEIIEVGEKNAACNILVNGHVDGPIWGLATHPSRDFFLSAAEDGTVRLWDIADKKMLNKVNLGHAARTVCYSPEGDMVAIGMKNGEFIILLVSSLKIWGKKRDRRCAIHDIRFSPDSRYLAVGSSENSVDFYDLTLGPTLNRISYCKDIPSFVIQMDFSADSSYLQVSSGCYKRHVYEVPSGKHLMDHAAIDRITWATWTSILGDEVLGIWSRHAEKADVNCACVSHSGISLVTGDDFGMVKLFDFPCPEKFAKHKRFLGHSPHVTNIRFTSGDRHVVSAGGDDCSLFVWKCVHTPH
UniProt Q9GZV4: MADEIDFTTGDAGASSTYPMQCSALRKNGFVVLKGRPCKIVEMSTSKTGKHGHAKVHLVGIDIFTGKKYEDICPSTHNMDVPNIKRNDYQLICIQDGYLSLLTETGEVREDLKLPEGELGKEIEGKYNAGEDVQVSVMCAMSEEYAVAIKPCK
UniProt Q9UHF1: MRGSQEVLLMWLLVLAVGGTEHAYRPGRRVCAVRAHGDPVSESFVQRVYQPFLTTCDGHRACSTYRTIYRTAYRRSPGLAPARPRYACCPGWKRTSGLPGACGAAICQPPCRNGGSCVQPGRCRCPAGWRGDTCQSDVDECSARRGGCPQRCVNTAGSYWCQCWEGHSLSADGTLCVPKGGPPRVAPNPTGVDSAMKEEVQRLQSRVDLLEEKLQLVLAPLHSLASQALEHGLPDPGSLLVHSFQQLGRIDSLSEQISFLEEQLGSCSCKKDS

How the values were obtained:
Experiment in all cases: log2 fold change, soluble protein after heating vs DMSO (PISA); higher = thermal stabilisation; K562 cells, 10 uM, 30 min; active = over 0.2 and 3.5 SD of the protein, either way, in both replicates (recomputed)
[1] = compound: CC1=C(C=C(C=C1)NC(=O)C2=CC(=CC=C2)C(C)(C)C#N)NC3=CC4=C(C=C3)N=CN(C4=O)C
Summary of the method: (§1)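 K562 cells (2×10^6 cells/mL) were treated with 10 μM compound for 30 min, and aliquots were heated for 3 min over 48°C-58°C. Pooled aliquots were extracted in PBS with 0.5% NP-40 at 4°C, and the supernatant after 21,000xg for 90 min was measured by TMTpro 16plex LC-MS/MS with channel sums equalised. Reported thermal stability, relative to control samples and from duplicates, is a log2 fold change.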

[2] = compound: CC1=NC(=CC=C1)C2=C(N=C(N2)C(C)(C)C)C3=CC4=NC=CN=C4C=C3
Summary of the method: as §1

[3] = compound: CCCCN(Cc1ccc(C(=O)NO)cc1)C(=O)Nc1ccccc1 [Nexturastat A]
Summary of the method: as §1

[4] = compound: CCN(CC)Cc1ccc2cc(COC(=O)Nc3ccc(C(=O)NO)cc3)ccc2c1 [givinostat]
Summary of the method: as §1

[5] = compound: CCN(CCCOc1ccc2c(Nc3cc(CC(=O)Nc4cccc(F)c4)[nH]n3)ncnc2c1)CCOP(=O)(O)O [barasertib]
Summary of the method: as §1

[6] = compound: CC1=C(C=C(C=C1)NC(=O)C2=CC(=CC=C2)N(C)C)NC(=O)C3=CC=C(C=C3)O
Summary of the method: as §1

[7] = compound: CC1=CC=C(C=C1)SC2=C3C=C(SC3=CN=C2)C(=O)N
Summary of the method: as §1

[8] = compound: CCCS(=O)(=O)Nc1ccc(F)c(C(=O)c2c[nH]c3ncc(Cl)cc23)c1F
Summary of the method: as §1

[9] = compound: CCCS(=O)(=O)Nc1ccc(F)c(C(=O)c2c[nH]c3ncc(-c4ccc(Cl)cc4)cc23)c1F [vemurafenib]
Summary of the method: as §1

[10] = compound: CCCc1cc(C)[nH]c(=O)c1CNC(=O)c1cc(-c2ccnc(N3CCN(C)CC3)c2)cc2c1cnn2C(C)C
Summary of the method: as §1

Measured: log2 fold change

ENTPD4 (UniProt Q9Y227)
inactive: [1] -0.154 | [2] 0.039 | [3] 0.098 | [4] 0.066 | [5] -0.104

EFEMP1 (UniProt Q12805)
inactive: [1] 0.116 | [6] 0.043 | [7] 0.093 | [2] 0.093 | [8] -0.057 | [4] 0.002

EIF2AK2 (UniProt P19525)
inactive: [1] -0.044 | [6] 0.063 | [2] -0.126 | [3] 0.696 | [9] -0.198 | [10] 0.15 | [4] 0.101 | [5] 0.086

ELMO1 (UniProt Q92556)
inactive: [1] -0.075 | [6] -0.005 | [2] -0.074 | [3] -0.101 | [9] -0.172 | [10] 0.218 | [4] -0.043 | [5] -0.105

ELP2 isoform 6 (UniProt Q6IA86)
inactive: [1] -0.004 | [6] 0.007 | [7] 0.029 | [2] 0.012 | [3] -0.002 | [9] -0.044 | [8] 0.014 | [10] -0.049 | [4] -0.066 | [5] -0.001

EFHD1 (UniProt Q9BUP0)
inactive: [1] 0.189 | [3] 0.209 | [9] -0.112

ELP4 isoform 3 (UniProt Q96EB1)
inactive: [1] -0.045 | [6] 0.048 | [7] 0.005 | [2] 0.049 | [3] -0.035 | [9] 0.016 | [8] 0 | [10] -0.028 | [4] -0.007 | [5] -0.022

EEF1AKMT4-ECE2 (UniProt P0DPD8)
inactive: [1] 0.108 | [2] -0.084 | [5] 0.133

EMC8 (UniProt O43402)
inactive: [1] 0.015 | [6] 0 | [7] -0.031 | [2] 0.012 | [3] -0.013 | [9] 0.022 | [8] 0.007 | [10] 0.013 | [4] -0.127 | [5] 0.002

EEF2 (UniProt P13639)
inactive: [1] 0.021 | [6] 0.007 | [7] -0.001 | [2] 0.027 | [3] -0.058 | [9] 0.011 | [8] -0.012 | [10] 0.038 | [4] -0.051 | [5] 0.001

EEF1A1 (UniProt P68104)
inactive: [1] -0.069 | [6] -0.068 | [7] 0 | [2] 0.052 | [3] 0.086 | [9] 0.031 | [8] 0.022 | [10] 0.089 | [4] -0.044 | [5] 0.052

ENTPD6 (UniProt O75354)
inactive: [1] 0.085 | [6] 0.025 | [7] -0.007 | [3] -0.019 | [8] -0.007 | [10] 0.188 | [4] 0.036 | [5] 0.065

EGR1 (UniProt P18146)
inactive: [1] -0.128 | [6] -0.024 | [7] -0.404 | [3] 0.53 | [9] 0.305 | [8] -0.13 | [10] -0.027 | [4] -0.06 | [5] -0.048

ELF1 (UniProt P32519)
inactive: [1] 0.056 | [6] -0.05 | [7] 0 | [2] 0.033 | [3] -0.051 | [8] 0.091 | [4] 0.152

ELAC1 (UniProt Q9H777)
inactive: [1] 0.003 | [7] -0.051 | [2] -0.049 | [3] 0.011 | [9] -0.017 | [8] 0.007 | [4] -0.023

EML3 (UniProt Q32P44)
inactive: [1] -0.018 | [6] -0.015 | [7] -0.134 | [2] -0.078 | [3] 0.027 | [8] 0.046 | [10] 0.1 | [4] 0.124 | [5] 0.032

EIF3J isoform 2 (UniProt O75822)
inactive: [1] -0.1 | [7] 0.032 | [2] -0.02 | [3] 0.048 | [9] -0.17 | [8] -0.062 | [10] -0.613 | [4] -0.129 | [5] -0.071

ENTPD3 (UniProt O75355)
inactive: [7] 0.078 | [2] 0.824 | [8] -0.052

ENTR1 (UniProt Q96C92)
inactive: [7] -0.091 | [9] 0.06 | [8] -0.105 | [4] 0.062

EEF1D isoform 3 (UniProt P29692)
inactive: [10] -0.674 | [4] -0.236

ELMO2 (UniProt Q96JJ3)
inactive: [6] 0.039

EPB41 isoform 4 (UniProt P11171)
inactive: [6] -0.022 | [7] -0.074 | [8] 0.128 | [10] 0.001 | [5] -0.055

EIF3I (UniProt Q5TFK1)
inactive: [6] -0.119 | [2] -0.055

ENAH (UniProt Q8N8S7)
inactive: [9] -0.532

EEF1AKMT2 (UniProt Q5JPI9)
inactive: [1] 0.057 | [10] -0.11 | [4] 0.052 | [5] -0.126

Quoted at random: 4 entries already listed.
ENTR1 (UniProt Q96C92)
inactive: [7] -0.091 | [9] 0.06 | [8] -0.105 | [4] 0.062

EEF1D isoform 3 (UniProt P29692)
inactive: [10] -0.674 | [4] -0.236

EIF3I (UniProt Q5TFK1)
inactive: [6] -0.119 | [2] -0.055

EPB41 isoform 4 (UniProt P11171)
inactive: [6] -0.022 | [7] -0.074 | [8] 0.128 | [10] 0.001 | [5] -0.055

Further records follow.

ENKD1 (UniProt Q9H0I2)
inactive: [7] -0.068 | [9] -0.048 | [8] 0.078 | [4] 0.116

ENPP2 isoform 2 (UniProt Q13822)
inactive: [3] -0.1 | [5] 0.036

EEF1AKMT1 (UniProt Q8WVE0)
inactive: [3] -0.028

EP400P1 isoform 6 (UniProt Q6ZTU2)
inactive: [6] -0.044

EEF2K (UniProt O00418)
inactive: [6] 0.006 | [7] 0.043 | [3] 0.201 | [9] 0.089 | [8] 0.157 | [10] 0.15 | [4] -0.041

EIF2B4 (UniProt Q9UI10)
inactive: [7] -0.278 | [2] -0.034 | [3] 0.125 | [9] -0.02 | [8] -0.051 | [10] -0.051 | [4] -0.004 | [5] -0.015

EIF4B (UniProt F8VP89)
inactive: [6] -0.086 | [7] -0.444 | [2] 0.084 | [8] -0.233 | [10] 0.013 | [5] 0.012

EIF4H isoform 2 (UniProt Q15056)
inactive: [4] -0.196

EHBP1 (UniProt Q8NDI1)
inactive: [10] -0.028

EML5 isoform 5 (UniProt Q05BV3)
inactive: [6] -0.04 | [7] -0.014 | [2] -0.057 | [9] -0.011 | [8] 0.003 | [10] -0.185 | [4] -0.038 | [5] 0.045

EIF5A2 (UniProt Q9GZV4)
inactive: [6] -0.143 | [10] -0.108 | [5] 0.176

EFCAB2 (UniProt Q5VUJ9)
inactive: [6] -0.099 | [4] 0.135

EGFL7 (UniProt Q9UHF1)
inactive: [1] -0.094 | [3] 0.039 | [5] -0.076

EPB41L1 (UniProt Q9H4G0)
inactive: [6] -0.143 | [7] -0.028 | [2] -0.088 | [3] -0.053 | [9] -0.093 | [8] -0.044 | [10] 0.035 | [4] 0.028 | [5] 0.042

ELP5 isoform 2 (UniProt Q8TE02)
inactive: [7] -0.079 | [8] -0.149 | [4] -0.035

ELOVL7 (UniProt A1L3X0)
inactive: [3] 0.016 | [4] 0.034

ENO3 (UniProt K7EKN2)
inactive: [6] 0.029

ELAVL4 (UniProt P26378)
inactive: [6] 0 | [2] 0.069 | [5] -0.006

EIF2AK3 (UniProt Q9NZJ5)
inactive: [7] 0.036 | [2] -0.043 | [3] -0.595 | [8] -0.161 | [10] 0.244 | [4] 0.027 | [5] 0.151

ELOA (UniProt Q14241)
inactive: [3] 0.212 | [10] 0.04

EIF3E (UniProt E5RIT4)
inactive: [3] 0.398

EIF5A (UniProt I3L397)
inactive: [6] -0.118

EP400 (UniProt Q96L91)
inactive: [1] -0.205 | [10] -0.184

EIF4G1 (UniProt Q04637)
inactive: [9] -0.071
